This experiment deals with GST alone. In words: pull-down; 20 µg of GST fusion protein on glutathione sepharose beads incubated 2 hr at 4°C with 35S-labelled in vitro translated Zc3h10; three washes with binding buffer; SDS-PAGE and autoradiography; only the target purified.

These are yes or no findings as the source states them, for the method shown. In cells and extracts the contact can be indirect.

B1: [35S]-Zc3h10 (protein, UniProt Q8R205 1-435)
chain: MPDRDSYANGTGSSGGGPGGGGSEEASGAGTGSGGATSDAICRDFLRNVCKRGKRCRYRHPDMSEVSNLGVSKNEFIFCHDFQNKECSRPNCRFIHGSKEDEDGYKKTGELPPRLRQKVAAGLGLSPADLPNGKEEVPICRDFLKGDCQRGAKCKFRHLQRDFEFDARGGGGTGGGGSTGSAPPGRRHDLYDIYDLPERGFEDHEPGPKRRRGGCCPPDGPHFESYECNLAPLRGVECRLLEEENALLRKRVEELKKQVSNLLATNEVLLEQNAQFRNQAKVMTLSSTAPATEQTLAPTVGTVATFNHGIAQTHTTLSSQALQPRPVSQQELVAPTGAPAAPPTNAAPPAAPPPPPPHLNPEITPLSAALAQTIAQGMAPPPVSMAPVAVSVAPVAPVAVSMAQPLAGITMSHTTTPMVTYPIASQSMRITAMPH
modifications: 35S-labelled
Consider B1, for which the binding entry is “no binding (tested: 20 µg of GST fusion proteins)”.

(Values after paper PMC7661038.)
